Laboratory results reported in the supplement of paper PMC10849652.
Some of the results follow.

Chains of the proteins cited; added tags and fusions are not shown. Lines headed by an entry give the natural chain unless they say otherwise; changes in a name come on top.
UniProt Q70Z53: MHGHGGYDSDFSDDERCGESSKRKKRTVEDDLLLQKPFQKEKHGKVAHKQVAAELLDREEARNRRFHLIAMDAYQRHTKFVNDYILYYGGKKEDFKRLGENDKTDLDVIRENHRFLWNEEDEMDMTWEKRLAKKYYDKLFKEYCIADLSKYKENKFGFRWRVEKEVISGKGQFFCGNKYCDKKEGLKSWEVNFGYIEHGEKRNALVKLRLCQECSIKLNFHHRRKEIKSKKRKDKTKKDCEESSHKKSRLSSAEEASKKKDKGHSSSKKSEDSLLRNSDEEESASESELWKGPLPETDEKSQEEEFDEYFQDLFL
UniProt Q06546: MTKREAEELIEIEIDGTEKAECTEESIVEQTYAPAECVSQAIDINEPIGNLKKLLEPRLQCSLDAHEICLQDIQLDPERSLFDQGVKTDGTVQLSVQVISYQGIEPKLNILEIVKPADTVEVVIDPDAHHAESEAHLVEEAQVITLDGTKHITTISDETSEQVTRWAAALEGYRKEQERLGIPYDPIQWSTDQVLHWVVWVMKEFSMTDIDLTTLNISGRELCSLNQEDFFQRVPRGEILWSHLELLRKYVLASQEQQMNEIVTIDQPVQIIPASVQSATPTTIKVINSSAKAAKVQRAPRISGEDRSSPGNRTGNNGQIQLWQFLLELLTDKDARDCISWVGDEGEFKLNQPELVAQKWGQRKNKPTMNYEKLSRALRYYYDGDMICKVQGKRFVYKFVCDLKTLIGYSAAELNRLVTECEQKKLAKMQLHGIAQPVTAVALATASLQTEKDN
UniProt Q9H0R8, whole entry, looked up: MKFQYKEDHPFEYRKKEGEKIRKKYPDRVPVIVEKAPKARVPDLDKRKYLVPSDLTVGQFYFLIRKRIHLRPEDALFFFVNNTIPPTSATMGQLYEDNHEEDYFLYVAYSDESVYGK
UniProt Q8TEQ6: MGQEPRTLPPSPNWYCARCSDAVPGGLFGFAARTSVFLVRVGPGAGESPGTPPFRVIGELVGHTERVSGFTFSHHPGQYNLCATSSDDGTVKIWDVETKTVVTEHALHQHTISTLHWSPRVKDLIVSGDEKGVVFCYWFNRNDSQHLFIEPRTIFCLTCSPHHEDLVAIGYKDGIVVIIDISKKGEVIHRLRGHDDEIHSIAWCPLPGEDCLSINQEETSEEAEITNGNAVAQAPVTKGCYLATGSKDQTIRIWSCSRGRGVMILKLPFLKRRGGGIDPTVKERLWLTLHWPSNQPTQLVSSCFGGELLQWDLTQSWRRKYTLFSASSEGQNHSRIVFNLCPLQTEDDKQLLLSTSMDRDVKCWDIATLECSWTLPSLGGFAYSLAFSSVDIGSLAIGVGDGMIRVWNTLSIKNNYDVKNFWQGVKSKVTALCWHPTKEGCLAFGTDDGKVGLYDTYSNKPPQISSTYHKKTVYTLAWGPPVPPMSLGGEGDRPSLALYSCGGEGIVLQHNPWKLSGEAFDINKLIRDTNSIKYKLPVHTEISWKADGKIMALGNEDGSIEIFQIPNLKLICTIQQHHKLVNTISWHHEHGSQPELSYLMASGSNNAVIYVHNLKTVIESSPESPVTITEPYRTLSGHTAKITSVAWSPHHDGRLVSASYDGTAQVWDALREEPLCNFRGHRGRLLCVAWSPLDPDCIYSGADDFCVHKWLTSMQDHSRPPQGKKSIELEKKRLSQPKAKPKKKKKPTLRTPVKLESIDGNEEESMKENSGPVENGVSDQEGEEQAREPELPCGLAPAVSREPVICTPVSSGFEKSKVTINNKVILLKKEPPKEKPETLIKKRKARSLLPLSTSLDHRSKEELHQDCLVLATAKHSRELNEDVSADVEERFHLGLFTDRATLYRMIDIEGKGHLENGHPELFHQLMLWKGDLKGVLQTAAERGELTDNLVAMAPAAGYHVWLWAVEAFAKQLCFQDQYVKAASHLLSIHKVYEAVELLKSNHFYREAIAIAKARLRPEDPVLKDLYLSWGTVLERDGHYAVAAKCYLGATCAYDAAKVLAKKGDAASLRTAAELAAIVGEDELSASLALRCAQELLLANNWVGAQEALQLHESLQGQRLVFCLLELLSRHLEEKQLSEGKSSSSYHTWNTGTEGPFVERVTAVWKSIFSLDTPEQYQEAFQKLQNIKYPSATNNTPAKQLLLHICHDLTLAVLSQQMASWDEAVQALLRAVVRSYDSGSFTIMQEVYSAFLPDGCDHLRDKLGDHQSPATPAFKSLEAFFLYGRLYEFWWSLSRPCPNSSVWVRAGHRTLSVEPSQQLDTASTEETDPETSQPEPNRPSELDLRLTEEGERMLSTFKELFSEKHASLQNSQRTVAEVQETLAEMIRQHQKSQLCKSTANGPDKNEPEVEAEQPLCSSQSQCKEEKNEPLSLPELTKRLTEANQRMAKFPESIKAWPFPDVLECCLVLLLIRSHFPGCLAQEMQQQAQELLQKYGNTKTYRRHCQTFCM
UniProt O43716: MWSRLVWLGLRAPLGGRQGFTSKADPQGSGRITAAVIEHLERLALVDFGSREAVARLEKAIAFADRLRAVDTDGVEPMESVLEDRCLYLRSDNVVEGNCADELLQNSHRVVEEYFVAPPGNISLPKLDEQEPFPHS
UniProt P51570: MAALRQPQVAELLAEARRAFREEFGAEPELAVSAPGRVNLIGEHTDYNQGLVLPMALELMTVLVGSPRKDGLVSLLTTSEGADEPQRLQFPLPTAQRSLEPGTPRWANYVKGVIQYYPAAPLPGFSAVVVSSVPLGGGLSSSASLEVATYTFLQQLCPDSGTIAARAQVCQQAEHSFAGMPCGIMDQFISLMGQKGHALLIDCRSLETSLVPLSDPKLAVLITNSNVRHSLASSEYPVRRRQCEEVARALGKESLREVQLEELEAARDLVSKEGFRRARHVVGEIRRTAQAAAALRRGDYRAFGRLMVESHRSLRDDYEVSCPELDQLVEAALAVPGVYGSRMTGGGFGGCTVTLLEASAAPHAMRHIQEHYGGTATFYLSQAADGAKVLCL
UniProt Q8IXK2: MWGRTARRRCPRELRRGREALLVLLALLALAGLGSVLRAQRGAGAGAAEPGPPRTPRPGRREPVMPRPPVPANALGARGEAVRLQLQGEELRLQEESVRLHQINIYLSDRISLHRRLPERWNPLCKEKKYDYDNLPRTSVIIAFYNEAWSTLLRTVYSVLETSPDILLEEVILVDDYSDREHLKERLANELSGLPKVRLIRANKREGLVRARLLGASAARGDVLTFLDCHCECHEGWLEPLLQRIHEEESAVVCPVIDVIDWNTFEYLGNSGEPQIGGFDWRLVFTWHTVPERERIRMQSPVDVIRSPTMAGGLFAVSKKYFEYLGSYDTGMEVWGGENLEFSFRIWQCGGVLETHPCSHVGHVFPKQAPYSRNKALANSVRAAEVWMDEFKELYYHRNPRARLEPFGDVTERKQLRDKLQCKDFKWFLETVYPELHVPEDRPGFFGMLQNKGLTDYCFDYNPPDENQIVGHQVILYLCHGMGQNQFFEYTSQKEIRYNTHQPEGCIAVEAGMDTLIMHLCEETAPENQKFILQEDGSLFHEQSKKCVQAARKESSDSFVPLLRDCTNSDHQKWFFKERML
UniProt Q9UQC2, whole entry, looked up: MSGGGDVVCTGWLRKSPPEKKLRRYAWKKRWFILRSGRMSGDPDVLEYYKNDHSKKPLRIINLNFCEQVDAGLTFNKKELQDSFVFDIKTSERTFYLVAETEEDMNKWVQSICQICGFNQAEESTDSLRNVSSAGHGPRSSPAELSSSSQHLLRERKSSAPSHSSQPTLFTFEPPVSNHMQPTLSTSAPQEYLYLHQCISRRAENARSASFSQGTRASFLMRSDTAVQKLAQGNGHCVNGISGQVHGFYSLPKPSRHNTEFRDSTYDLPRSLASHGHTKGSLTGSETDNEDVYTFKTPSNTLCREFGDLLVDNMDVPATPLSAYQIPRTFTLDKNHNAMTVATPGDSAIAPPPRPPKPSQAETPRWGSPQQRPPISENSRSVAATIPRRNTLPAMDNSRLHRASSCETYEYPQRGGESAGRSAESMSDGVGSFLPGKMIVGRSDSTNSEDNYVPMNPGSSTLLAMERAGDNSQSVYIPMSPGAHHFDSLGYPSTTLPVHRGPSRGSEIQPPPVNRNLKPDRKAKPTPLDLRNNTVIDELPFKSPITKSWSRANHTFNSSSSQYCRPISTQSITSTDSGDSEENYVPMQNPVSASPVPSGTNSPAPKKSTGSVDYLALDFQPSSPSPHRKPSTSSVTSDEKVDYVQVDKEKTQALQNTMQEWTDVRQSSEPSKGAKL
UniProt Q9NZC3: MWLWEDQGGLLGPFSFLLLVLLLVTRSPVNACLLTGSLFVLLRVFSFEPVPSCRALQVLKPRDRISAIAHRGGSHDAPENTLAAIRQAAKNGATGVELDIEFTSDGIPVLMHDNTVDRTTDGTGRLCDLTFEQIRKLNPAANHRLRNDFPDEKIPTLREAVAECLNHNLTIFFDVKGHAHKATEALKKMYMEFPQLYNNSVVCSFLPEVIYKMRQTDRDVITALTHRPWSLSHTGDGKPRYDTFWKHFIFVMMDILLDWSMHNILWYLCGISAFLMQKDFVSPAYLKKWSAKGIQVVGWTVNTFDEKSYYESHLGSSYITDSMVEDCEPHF
UniProt A2VDF0: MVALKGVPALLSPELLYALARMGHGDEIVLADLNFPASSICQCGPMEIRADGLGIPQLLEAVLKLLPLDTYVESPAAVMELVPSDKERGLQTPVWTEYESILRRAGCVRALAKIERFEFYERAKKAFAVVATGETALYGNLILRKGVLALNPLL
UniProt Q9HCG7: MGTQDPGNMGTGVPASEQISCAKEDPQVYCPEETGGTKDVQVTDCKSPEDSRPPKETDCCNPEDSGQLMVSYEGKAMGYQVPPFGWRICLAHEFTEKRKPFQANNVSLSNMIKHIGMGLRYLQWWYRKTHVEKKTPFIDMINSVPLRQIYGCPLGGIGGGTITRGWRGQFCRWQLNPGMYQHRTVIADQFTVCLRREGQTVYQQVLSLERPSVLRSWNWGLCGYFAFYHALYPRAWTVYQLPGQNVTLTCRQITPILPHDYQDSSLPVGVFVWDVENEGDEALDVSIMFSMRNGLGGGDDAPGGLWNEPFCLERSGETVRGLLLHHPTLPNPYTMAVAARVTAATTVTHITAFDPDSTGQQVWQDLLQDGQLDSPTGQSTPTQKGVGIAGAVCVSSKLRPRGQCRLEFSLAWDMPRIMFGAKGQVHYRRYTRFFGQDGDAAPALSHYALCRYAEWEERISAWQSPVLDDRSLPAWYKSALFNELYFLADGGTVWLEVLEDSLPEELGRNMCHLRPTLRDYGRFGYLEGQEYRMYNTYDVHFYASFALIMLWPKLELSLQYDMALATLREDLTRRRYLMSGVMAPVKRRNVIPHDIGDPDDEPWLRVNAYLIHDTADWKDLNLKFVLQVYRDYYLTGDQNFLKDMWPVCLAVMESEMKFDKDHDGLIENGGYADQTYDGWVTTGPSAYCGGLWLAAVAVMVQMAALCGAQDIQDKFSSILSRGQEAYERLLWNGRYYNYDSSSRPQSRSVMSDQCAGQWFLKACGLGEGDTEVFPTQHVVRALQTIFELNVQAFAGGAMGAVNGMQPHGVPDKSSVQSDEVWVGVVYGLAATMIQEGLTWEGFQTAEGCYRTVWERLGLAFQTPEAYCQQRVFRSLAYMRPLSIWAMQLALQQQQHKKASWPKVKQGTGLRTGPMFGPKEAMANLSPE
UniProt Q9BUM1: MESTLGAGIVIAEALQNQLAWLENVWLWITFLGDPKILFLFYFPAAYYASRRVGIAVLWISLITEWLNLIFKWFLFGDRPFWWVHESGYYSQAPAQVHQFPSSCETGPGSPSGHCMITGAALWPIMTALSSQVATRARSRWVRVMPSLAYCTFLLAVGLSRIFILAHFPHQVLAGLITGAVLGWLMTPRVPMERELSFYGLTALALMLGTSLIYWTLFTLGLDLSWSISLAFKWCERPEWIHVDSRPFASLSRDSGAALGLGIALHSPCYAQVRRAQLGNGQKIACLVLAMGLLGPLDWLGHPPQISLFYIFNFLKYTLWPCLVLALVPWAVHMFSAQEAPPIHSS
UniProt Q9BZ67: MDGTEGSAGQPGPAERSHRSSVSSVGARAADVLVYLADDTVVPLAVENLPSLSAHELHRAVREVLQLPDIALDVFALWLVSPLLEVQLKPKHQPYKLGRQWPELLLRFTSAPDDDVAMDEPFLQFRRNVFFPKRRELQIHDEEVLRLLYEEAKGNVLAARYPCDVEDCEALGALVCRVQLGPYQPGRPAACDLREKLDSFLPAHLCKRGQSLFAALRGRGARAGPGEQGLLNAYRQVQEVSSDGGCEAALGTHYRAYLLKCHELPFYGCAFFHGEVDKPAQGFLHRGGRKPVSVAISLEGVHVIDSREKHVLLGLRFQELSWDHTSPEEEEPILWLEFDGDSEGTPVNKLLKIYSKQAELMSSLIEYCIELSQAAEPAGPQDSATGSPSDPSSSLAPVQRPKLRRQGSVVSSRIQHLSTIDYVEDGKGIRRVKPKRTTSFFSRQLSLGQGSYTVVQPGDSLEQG

Key:
Assay in all cases: log2 fold change, soluble protein after heating vs DMSO (PISA); higher = thermal stabilisation; K562 cells, 10 uM, 30 min; active = over 0.2 and 3.5 SD of the protein, either way, in both replicates (recomputed)
[1] = compound: CC[C@@H]1C(=O)N(C)c2cnc(Nc3ccc(C(=O)NC4CCN(C)CC4)cc3OC)nc2N1C1CCCC1
How it was run: (§1)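 Thermal stability values are relative to control samples and come from duplicates. They are expressed as log2 fold changes. For measurement, K562 cells (2×10^6 cells/mL) received 10 μM compound for 30 min, and aliquots were heated for 3 min over 48°C-58°C, pooled, and extracted at 4°C in PBS with 0.5% NP-40. Soluble protein, the supernatant after 21,000xg for 90 min, was quantified by TMTpro 16plex LC-MS/MS with equalised channel sums.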

volasertib = compound: CC[C@@H]1C(=O)N(C)c2cnc(Nc3ccc(C(=O)N[C@H]4CC[C@H](N5CCN(CC6CC6)CC5)CC4)cc3OC)nc2N1C(C)C [volasertib]
How it was run: as §1

[2] = compound: CC[C@H](C)N1C=C(C2=C(C=C(C=C21)C3=CN=C(C=C3)N4CCNCC4)C(=O)NCC5=C(C=C(NC5=O)C)C)C
How it was run: as §1

epoxomicin = compound: CC[C@H](C)[C@@H](C(=O)N[C@@H]([C@@H](C)O)C(=O)N[C@@H](CC(C)C)C(=O)[C@]1(CO1)C)NC(=O)[C@H]([C@@H](C)CC)N(C)C(=O)C [epoxomicin]
How it was run: as §1

[3] = compound: CCn1cc(-c2ccnc3[nH]c(-c4cccc(CN(C)C)c4)cc23)c(-c2ccc(NC(=O)N(C)C)cc2)n1
How it was run: as §1

[4] = compound: CN(C)CC(=O)Nc1ccc2[nH]c(=O)c3ccccc3c2c1
How it was run: as §1

[5] = compound: CN1C2=C(C3=C1C(=O)N(N=C3)CC4=CC(=CC=C4)N)SC(=C2)S(=O)C
How it was run: as §1

[6] = compound: CN1CCC(CNc2ccc3ncc(-c4cccc(OC(F)(F)F)c4)n3n2)CC1
How it was run: as §1

[7] = compound: CCn1c(C(=O)N(C2CC2)C2CC2)cc2c3c(ncn3C)c(Nc3cc(C)n(C)n3)nc21
How it was run: as §1

rosiglitazone = compound: CN(CCOC1=CC=C(C=C1)C[C@H]2C(=O)NC(=O)S2)C3=CC=CC=N3 (racemic) [rosiglitazone]
How it was run: as §1

Measured: log2 fold change

GALNT4 (UniProt Q8N4A0)
active: volasertib -0.334 | [6] -0.367
inactive: [1] -0.062 | [2] -0.032 | epoxomicin -0.041 | [3] -0.031 | [4] 0.007 | [5] -0.007

GEMIN8 (UniProt Q9NWZ8)
inactive: [1] 0.204 | volasertib -0.049 | [2] -0.056 | epoxomicin -0.16 | [7] 0.129 | [4] -0.06

GATD1 (UniProt Q8NB37)
inactive: [1] -0.023 | volasertib -0.009 | [2] -0.032 | epoxomicin 0.078 | [3] -0.034 | [4] -0.02 | [5] 0.011 | [6] -0.049

FRA10AC1 isoform 3 (UniProt Q70Z53)
inactive: [1] -0.086 | [2] -0.034 | epoxomicin 0.041 | [3] 0.025 | [4] -0.013 | [5] 0.093 | [6] 0.057
active: volasertib -0.613

GALNT2 (UniProt Q10471)
inactive: [1] -0.082 | [2] 0.027 | epoxomicin -0.004 | [3] -0.034 | [4] -0.021 | [5] -0.079 | [6] -0.077
active: volasertib -0.377

GABPA (UniProt Q06546)
inactive: [1] -0.017 | [2] 0.079 | epoxomicin 0.007 | [3] -0.07 | [4] 0.037 | [5] -0.026 | [6] -0.174
active: volasertib -0.304

GABARAPL1 isoform 2 (UniProt Q9H0R8)
inactive: volasertib -0.186 | [2] 0.035 | epoxomicin -0.029 | [3] 0.007 | [4] 0.034 | [5] -0.135 | [6] -0.187
active: [1] -0.303

FXR1 (UniProt P51114)
inactive: [1] 0.149 | volasertib -0.138 | [2] 0.071 | epoxomicin -0.399 | [7] 0.069 | [3] 0.215 | [4] 0.004 | rosiglitazone 0.002 | [5] 0.422 | [6] 0.018

GEMIN5 (UniProt Q8TEQ6)
inactive: [1] -0.122 | [2] 0.034 | epoxomicin -0.014 | [3] 0.042 | [4] 0.015 | [5] 0.019 | [6] -0.094
active: volasertib -0.438

GATC (UniProt O43716)
inactive: [1] 0.205 | volasertib -0.131 | [2] 0.05 | epoxomicin 0.106 | [3] 0 | [4] 0.028 | rosiglitazone -0.045 | [5] -0.067 | [6] 0.238

GARS1 (UniProt H7C443)
inactive: [1] 0.16 | volasertib 0 | [2] -0.123 | epoxomicin -0.155 | [7] 0.008 | [3] 0.38 | [4] -0.126 | [6] -0.119

FOXK1 (UniProt P85037)
inactive: [1] 0.429 | volasertib -0.017 | [2] 0.035 | epoxomicin 0.027 | [3] 0.041 | [4] -0.001 | [5] -0.289 | [6] 0.456

GALK1 isoform 2 (UniProt P51570)
inactive: [1] -0.03 | volasertib -0.009 | [2] 0.053 | epoxomicin 0.131 | [3] -0.064 | [4] 0.106 | [5] -0.049 | [6] -0.03

GAS6 isoform 1 (UniProt Q14393)
inactive: [1] 0 | epoxomicin 0.243 | [7] 0.092 | [3] 0.051 | [6] 0.143

GALNT12 (UniProt Q8IXK2)
inactive: [1] 0.001 | volasertib -0.38 | epoxomicin 0.014 | [7] -0.026 | [3] 0.051 | [4] -0.041 | rosiglitazone 0.051 | [5] 0.063 | [6] 0.024

FOXRED2 (UniProt Q8IWF2)
inactive: [1] 0.089 | volasertib 0.092 | epoxomicin -0.187 | [7] -0.1 | [4] -0.115 | [5] 0.095

GAB2 (UniProt Q9UQC2)
inactive: [1] -0.203 | volasertib -0.009 | epoxomicin 0.065 | [3] 0.034 | [4] -0.016 | [5] 0.002 | [6] -0.458

FRMPD3 (UniProt Q5JV73)
inactive: [1] -0.1 | epoxomicin -0.152 | [7] 0.007 | [4] -0.18 | rosiglitazone -0.037

GDE1 (UniProt Q9NZC3)
inactive: [1] 0.033 | volasertib 0.053 | [2] -0.092 | epoxomicin -0.046 | [4] -0.049 | [5] -0.016

FUOM (UniProt A2VDF0)
inactive: [1] 0.085 | [2] 0.105 | [4] -0.175 | rosiglitazone -0.027

GBA2 (UniProt Q9HCG7)
active: volasertib 0.308
inactive: [1] 0 | [2] -0.082 | epoxomicin -0.062 | [4] 0.027 | [5] -0.085

GCC2 (UniProt Q8IWJ2)
inactive: [1] 0.094 | volasertib -0.116 | [2] 0.053 | epoxomicin -0.005 | [3] 0.013 | [4] 0.026 | [5] 0.196 | [6] 0.031

GBF1 (UniProt Q92538)
active: volasertib -0.474
inactive: [1] -0.086 | [2] 0.059 | epoxomicin -0.007 | [3] -0.013 | [4] 0.069 | [5] 0.081 | [6] -0.212

GCDH (UniProt Q92947)
inactive: [1] -0.029 | volasertib 0.039 | [2] -0.003 | epoxomicin 0.024 | [3] -0.051 | [4] 0.008 | [5] -0.048 | [6] 0.072

G6PC3 (UniProt Q9BUM1)
inactive: [1] -0.032 | volasertib -0.004 | [2] -0.087 | [7] -0.108 | [4] 0.064

GAGE1 (UniProt Q13065)
inactive: [1] -0.081 | [2] -0.237

FRMD8 (UniProt Q9BZ67)
inactive: [1] -0.135 | [2] 0.126 | epoxomicin 0.076

GFAP isoform 2 (UniProt P14136)
inactive: [1] -0.02 | [3] -0.798 | [6] 0.088

FRY (UniProt Q5TBA9)
inactive: [1] 0.148 | epoxomicin -0.041 | [7] 0.068 | [3] 0.375 | [4] -0.012 | rosiglitazone -0.323 | [6] -0.179

GALNT7 (UniProt H0YAH3)
inactive: [1] -0.276 | epoxomicin 0.038 | [4] -0.061 | rosiglitazone 0.043

FOXO3 (UniProt O43524)
inactive: [1] -0.092 | volasertib -0.061 | epoxomicin 0.007 | [3] -0.004 | [4] 0.055 | [5] 0.158 | [6] -0.188

GID4 (UniProt Q8IVV7)
inactive: [1] 0.082 | volasertib 0.037 | [2] 0.044 | epoxomicin -0.019 | [3] 0.116 | [4] -0.21 | [5] -0.093 | [6] -0.006

GGA2 (UniProt Q9UJY4)
inactive: [1] 0.022 | volasertib 0.059 | [2] 0.038 | epoxomicin -0.033 | [4] -0.021 | [5] -0.02
